The list does not hold the whole screen: it covers a few groups of compounds. Not every dose and run of a compound is shown. T/C: endpoint of the treated group in % of that of the vehicle group. Some doses have a count of surviving animals in place of a T/C: the source files T/C as zero there, which appears to mark a toxic dose or a test without result, not a measured value. Counts of survivors are from the toxicity check (mostly the fifth day) where no day follows; animals may have died later. Schedule codes are those of the source, read here as Q, the interval in days (D) or hours (H), X, the number of doses. Where survival is the endpoint, the PubChem record calls one and a half times the control and up active, and a quarter to a half above the control has no call in these data; cut-offs in other NCI protocols can differ. Some entries hold several experiments; the results are listed from low to high. Some T/C values carry the count of animals alive at the toxicity check (mostly the fifth day); where neither a count nor a note follows, no animal had died by that day.
Tested on: CD2F1 mice, L1210 leukemia ip, survival T/C
Assay: NCI In Vivo Anticancer Drug Screen. Data for tumor model L1210 Leukemia (intraperitoneal) in CD2F1 (CDF1) mice
Conditions: higher T/C = longer survival
Method in brief: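 Mice carrying a transplanted tumor received test compound or vehicle alone. The value is the measurement in the treated group divided by that in the vehicle-treated control group.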

[1] = T/C endpoint: mean survival time, dose: 25.0 mg/kg/injection, schedule: Q01DX001 (ip), vehicle: DMSO
[2] = T/C endpoint: mean survival time, dose: 50.0 mg/kg/injection, schedule: Q01DX001 (ip), vehicle: DMSO
[3] = T/C endpoint: mean survival time, dose: 100.0 mg/kg/injection, schedule: Q01DX001 (ip), vehicle: DMSO
[4] = T/C endpoint: mean survival time, dose: 200.0 mg/kg/injection, schedule: Q01DX001 (ip), vehicle: DMSO
[5] = T/C endpoint: mean survival time, dose: 400.0 mg/kg/injection, schedule: Q01DX001 (ip), vehicle: DMSO

NC(=O)c1[nH]cnc1/N=N\N(CCCl)CCCl
T/C (T/C endpoint: mean survival time, dose: 20.0 mg/kg/injection, schedule: Q01DX009 (ip), vehicle: DMSO): 131 % of control
T/C (T/C endpoint: mean survival time, dose: 30.0 mg/kg/injection, schedule: Q04DX003 (ip), vehicle: other): 106 % of control
T/C (T/C endpoint: mean survival time, dose: 40.0 mg/kg/injection, schedule: Q01DX009 (ip), vehicle: DMSO): 188 % of control
T/C (T/C endpoint: mean survival time, dose: 60.0 mg/kg/injection, schedule: Q04DX003 (ip), vehicle: other): 108 % of control
T/C (T/C endpoint: mean survival time, dose: 60.0 mg/kg/injection, schedule: Q04DX004 (ip), vehicle: other): 245 % of control
T/C (T/C endpoint: mean survival time, dose: 75.0 mg/kg/injection, schedule: Q04DX003 (ip), vehicle: carboxymethylcellulose (CMC)): 297 % of control
T/C (T/C endpoint: mean survival time, dose: 80.0 mg/kg/injection, schedule: Q01DX009 (ip), vehicle: DMSO): 235 % of control
T/C (T/C endpoint: mean survival time, dose: 90.0 mg/kg/injection, schedule: Q04DX004 (ip), vehicle: other): 286 % of control
T/C (T/C endpoint: mean survival time, dose: 95.0 mg/kg/injection, schedule: Q04DX004 (ip), vehicle: other): 258 % of control
T/C (T/C endpoint: mean survival time, dose: 120.0 mg/kg/injection, schedule: Q04DX003 (ip), vehicle: other): 160 % of control
T/C (T/C endpoint: mean survival time, dose: 135.0 mg/kg/injection, schedule: Q04DX004 (ip), vehicle: other): 322 and 331 % of control
T/C (T/C endpoint: mean survival time, dose: 150.0 mg/kg/injection, schedule: Q01DX001 (ip), vehicle: carboxymethylcellulose (CMC)): 211 % of control
T/C (T/C endpoint: mean survival time, dose: 150.0 mg/kg/injection, schedule: Q04DX003 (ip), vehicle: carboxymethylcellulose (CMC)): 335 % of control
T/C (T/C endpoint: mean survival time, dose: 150.0 mg/kg/injection, schedule: Q08DX002 (ip), vehicle: carboxymethylcellulose (CMC)): 273 % of control
T/C (T/C endpoint: mean survival time, dose: 160.0 mg/kg/injection, schedule: Q01DX009 (ip), vehicle: DMSO): 205 % of control
T/C (T/C endpoint: mean survival time, dose: 240.0 mg/kg/injection, schedule: Q01DX009 (ip), vehicle: DMSO): 197 % of control [5 of 6 alive]
T/C (T/C endpoint: mean survival time, dose: 240.0 mg/kg/injection, schedule: Q04DX003 (ip), vehicle: other): 141 % of control
T/C (T/C endpoint: mean survival time, dose: 300.0 mg/kg/injection, schedule: Q01DX001 (ip), vehicle: carboxymethylcellulose (CMC)): 267 % of control [7 of 8 alive]
T/C (T/C endpoint: mean survival time, dose: 300.0 mg/kg/injection, schedule: Q04DX003 (ip), vehicle: carboxymethylcellulose (CMC)): 215 % of control
T/C (T/C endpoint: mean survival time, dose: 300.0 mg/kg/injection, schedule: Q08DX002 (ip), vehicle: carboxymethylcellulose (CMC)): 480 % of control
T/C (T/C endpoint: mean survival time, dose: 600.0 mg/kg/injection, schedule: Q01DX001 (ip), vehicle: carboxymethylcellulose (CMC)): 267 % of control
T/C (T/C endpoint: mean survival time, dose: 600.0 mg/kg/injection, schedule: Q04DX003 (ip), vehicle: carboxymethylcellulose (CMC)): 159 % of control [6 of 8 alive]
T/C (T/C endpoint: mean survival time, dose: 600.0 mg/kg/injection, schedule: Q08DX002 (ip), vehicle: carboxymethylcellulose (CMC)): 232 % of control [7 of 8 alive]
T/C (T/C endpoint: mean survival time, dose: 1200.0 mg/kg/injection, schedule: Q01DX001 (ip), vehicle: carboxymethylcellulose (CMC)): 223 % of control [6 of 8 alive]
T/C (T/C endpoint: mean survival time, dose: 1200.0 mg/kg/injection, schedule: Q08DX002 (ip), vehicle: carboxymethylcellulose (CMC)): 181 % of control [7 of 8 alive]
T/C (T/C endpoint: median survival time, dose: 25.0 mg/kg/injection, schedule: Q01DX001 (ip), vehicle: Klucel (hydroxypropylcellulose) (HPC)): 101 % of control
T/C (T/C endpoint: median survival time, dose: 25.0 mg/kg/injection, schedule: Q01DX009 (ip), vehicle: Klucel (hydroxypropylcellulose) (HPC), evaluated on day 30): 158 % of control
T/C (T/C endpoint: median survival time, dose: 25.0 mg/kg/injection, schedule: Q01DX009 (ip), vehicle: Klucel (hydroxypropylcellulose) (HPC), evaluated on day 55): 124 % of control
T/C (T/C endpoint: median survival time, dose: 25.0 mg/kg/injection, schedule: Q04DX003 (ip), vehicle: saline with Tween-80): 112 % of control
T/C (T/C endpoint: median survival time, dose: 50.0 mg/kg/injection, schedule: Q01DX001 (ip), vehicle: Klucel (hydroxypropylcellulose) (HPC)): 107 % of control
T/C (T/C endpoint: median survival time, dose: 50.0 mg/kg/injection, schedule: Q01DX009 (ip), vehicle: Klucel (hydroxypropylcellulose) (HPC), evaluated on day 30): 197 % of control
T/C (T/C endpoint: median survival time, dose: 50.0 mg/kg/injection, schedule: Q01DX009 (ip), vehicle: Klucel (hydroxypropylcellulose) (HPC), evaluated on day 55): 184 % of control
T/C (T/C endpoint: median survival time, dose: 50.0 mg/kg/injection, schedule: Q04DX003 (ip), vehicle: saline with Tween-80): 164 % of control
T/C (T/C endpoint: median survival time, dose: 100.0 mg/kg/injection, schedule: Q01DX001 (ip), vehicle: Klucel (hydroxypropylcellulose) (HPC)): 137 % of control
T/C (T/C endpoint: median survival time, dose: 100.0 mg/kg/injection, schedule: Q01DX009 (ip), vehicle: Klucel (hydroxypropylcellulose) (HPC), evaluated on day 30): 275 % of control
T/C (T/C endpoint: median survival time, dose: 100.0 mg/kg/injection, schedule: Q01DX009 (ip), vehicle: Klucel (hydroxypropylcellulose) (HPC), evaluated on day 55): 256 % of control
T/C (T/C endpoint: median survival time, dose: 100.0 mg/kg/injection, schedule: Q04DX003 (ip), vehicle: saline with Tween-80): 213 % of control
T/C (T/C endpoint: median survival time, dose: 108.0 mg/kg/injection, schedule: Q01DX001 (ip), vehicle: other): 173 % of control
T/C (T/C endpoint: median survival time, dose: 108.0 mg/kg/injection, schedule: Q01DX001 (ip), vehicle: steroid suspending solution): 166 % of control
T/C (T/C endpoint: median survival time, dose: 180.0 mg/kg/injection, schedule: Q01DX001 (ip), vehicle: other): 181 % of control
T/C (T/C endpoint: median survival time, dose: 180.0 mg/kg/injection, schedule: Q01DX001 (ip), vehicle: steroid suspending solution): 172 % of control
T/C (T/C endpoint: median survival time, dose: 200.0 mg/kg/injection, schedule: Q01DX001 (ip), vehicle: Klucel (hydroxypropylcellulose) (HPC)): 213 % of control
T/C (T/C endpoint: median survival time, dose: 200.0 mg/kg/injection, schedule: Q01DX009 (ip), vehicle: Klucel (hydroxypropylcellulose) (HPC), evaluated on day 30): 155 % of control
T/C (T/C endpoint: median survival time, dose: 200.0 mg/kg/injection, schedule: Q01DX009 (ip), vehicle: Klucel (hydroxypropylcellulose) (HPC), evaluated on day 55): 662 % of control
T/C (T/C endpoint: median survival time, dose: 200.0 mg/kg/injection, schedule: Q04DX003 (ip), vehicle: saline with Tween-80): 370 % of control
T/C (T/C endpoint: median survival time, dose: 300.0 mg/kg/injection, schedule: Q01DX001 (ip), vehicle: other): 181 % of control
T/C (T/C endpoint: median survival time, dose: 300.0 mg/kg/injection, schedule: Q01DX001 (ip), vehicle: steroid suspending solution): 177 % of control
T/C (T/C endpoint: median survival time, dose: 400.0 mg/kg/injection, schedule: Q01DX001 (ip), vehicle: Klucel (hydroxypropylcellulose) (HPC)): 208 % of control
T/C (T/C endpoint: median survival time, dose: 400.0 mg/kg/injection, schedule: Q01DX009 (ip), vehicle: Klucel (hydroxypropylcellulose) (HPC), evaluated on day 30): 97 % of control
T/C (T/C endpoint: median survival time, dose: 400.0 mg/kg/injection, schedule: Q01DX009 (ip), vehicle: Klucel (hydroxypropylcellulose) (HPC), evaluated on day 55): 119 % of control
T/C (T/C endpoint: median survival time, dose: 500.0 mg/kg/injection, schedule: Q01DX001 (ip), vehicle: other): 168 % of control
T/C (T/C endpoint: median survival time, dose: 500.0 mg/kg/injection, schedule: Q01DX001 (ip), vehicle: steroid suspending solution): 155 % of control
T/C (T/C endpoint: median survival time, dose: 800.0 mg/kg/injection, schedule: Q01DX001 (ip), vehicle: Klucel (hydroxypropylcellulose) (HPC)): 216 % of control

S=P(Cl)(Cl)Oc1ccccc1
T/C (T/C endpoint: mean survival time, dose: 6.25 mg/kg/injection, schedule: Q01DX001 (ip), vehicle: saline with Tween-80): 105 % of control
T/C (T/C endpoint: mean survival time, dose: 12.5 mg/kg/injection, schedule: Q01DX001 (ip), vehicle: saline with Tween-80): 103 % of control
T/C (T/C endpoint: mean survival time, dose: 25.0 mg/kg/injection, schedule: Q01DX001 (ip), vehicle: saline with Tween-80): 103 % of control
survivor count (T/C endpoint: mean survival time, dose: 100.0 mg/kg/injection, schedule: Q01DX001 (ip), vehicle: saline with Tween-80): 0 of 6
survivor count (T/C endpoint: mean survival time, dose: 200.0 mg/kg/injection, schedule: Q01DX001 (ip), vehicle: saline with Tween-80): 0 of 6
survivor count (T/C endpoint: mean survival time, dose: 400.0 mg/kg/injection, schedule: Q01DX001 (ip), vehicle: saline with Tween-80): 0 of 6

COC(CCOP(N)(=O)N(CCCl)CCCl)OC (centres undefined)
T/C [1]: 97 % of control
T/C [2]: 94 % of control
T/C [3]: 103 % of control
T/C [4]: 109 % of control
T/C [5]: 120 % of control

CN(C)P(=O)(OCCCO)N(CCCl)CCCl (centres undefined)
T/C [1]: 91 % of control
T/C [2]: 97 % of control
T/C [3]: 93 % of control
T/C [4]: 93 % of control
T/C [5]: 96 % of control
